Measurements published in PubChem BioAssay (NCATS).
The shares of active, inactive and inconclusive entries below differ from those in the screen. For some assays here: Potencies beside an inconclusive call are fits to weak or partial responses and may not hold up. Calls of active or inactive are those of the source. The call rests on the fitted dose curve; in most records, active means well fitted cell-killing curve with a large enough effect; inconclusive means small, poorly fitted or top-dose-only effect, or effect the other way; inactive means no such curve, though single readings can be large or run the other way.

Legend:
[1] = Quantitative High-Throughput drug screen in 47 multiple myeloma cell lines against the NCATS MIPE library collection: LP1_DSMZ cell viability assay (AID 1918982); further: nearly all actives have a fitted effect of over 35% in size
Summary of the method: (§1)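 Inhibition of viability over 48 h was scored by ATP content (CellTiter-Glo) in 500-cell wells. Zero and full viability were defined by media-only and DMSO-only wells.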

[2] = Quantitative High-Throughput drug screen in 47 multiple myeloma cell lines against the NCATS MIPE library collection: KMS34_JCRB cell viability assay (AID 1918985); further: nearly all actives have a fitted effect of over 40% in size
Summary of the method: as §1

[3] = Quantitative High-Throughput drug screen in 47 multiple myeloma cell lines against the NCATS MIPE library collection: XG6_PLB cell viability assay (AID 1919865); details: XG6 myeloma viability, CellTiter-Glo ATP luminescence, 48 h; viability (% of control): at 45.8 µM (top of the series); further: nearly all actives have a fitted effect of over 40% in size
Summary of the method: as §1

[4] = Quantitative High-Throughput drug screen in 47 multiple myeloma cell lines against the NCATS MIPE library collection: VP6_DJ cell viability assay (AID 1919867); details: ATP luminescence, 48 h; viability (% of DMSO): at 45.8 µM (top of the series); further: nearly all actives have a fitted effect of over 40% in size
Summary of the method: as §1

[5] = Quantitative High-Throughput drug screen in 47 multiple myeloma cell lines against the NCATS MIPE library collection: UTMC2_PLB cell viability assay (AID 1919868); details: CellTiter-Glo ATP luminescence, 48 h; viability (% of DMSO control): at 45.8 µM (top of the series); further: nearly all actives have a fitted effect of over 55% in size
Summary of the method: as §1

[6] = Quantitative High-Throughput drug screen in 47 multiple myeloma cell lines against the NCATS MIPE library collection: PCM6_Riken cell viability assay (AID 1919870); further: nearly all actives have a fitted effect of over 30% in size
Summary of the method: as §1

[7] = Quantitative High-Throughput drug screen in 47 multiple myeloma cell lines against the NCATS MIPE library collection: OPM2_DSMZ cell viability assay (AID 1919872); further: nearly all actives have a fitted effect of over 30% in size
Summary of the method: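 Approved and investigational drugs from MIPE 4.0 were added by pin tool to 500 cells per well. After 48 hours at 37C, ATP-based CellTiter-Glo luminescence indicated remaining viability.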

[8] = Quantitative High-Throughput drug screen in 47 multiple myeloma cell lines against the NCATS MIPE library collection: L363_DSMZ cell viability assay (AID 1918984); details: L363 myeloma viability, CellTiter-Glo ATP luminescence, 48 h; viability (% of control): at 45.8 µM (top of the series); further: nearly all actives have a fitted effect of over 40% in size
Summary of the method: as §1

[9] = Quantitative High-Throughput drug screen in 47 multiple myeloma cell lines against the NCATS MIPE library collection: OCIMY7_PLB cell viability assay (AID 1918987); details: OCI-MY7 myeloma viability, CellTiter-Glo ATP, 48 h; viability (% of DMSO): at 45.8 µM (top of the series); further: nearly all actives have a fitted effect of over 65% in size
Summary of the method: as §1

[10] = Quantitative High-Throughput drug screen in 47 multiple myeloma cell lines against the NCATS MIPE library collection: OCIMY5_PLB cell viability assay (AID 1918988); further: nearly all actives have a fitted effect of over 65% in size
Summary of the method: as §1

[11] = Quantitative High-Throughput drug screen in 47 multiple myeloma cell lines against the NCATS MIPE library collection: U266_ATCC cell viability assay (AID 1919864); details: U266 myeloma viability, CellTiter-Glo ATP luminescence, 48 h; viability (% of DMSO control): at 45.8 µM (top of the series); further: nearly all actives have a fitted effect of over 35% in size
Summary of the method: as §1

[12] = Quantitative High-Throughput drug screen in 47 multiple myeloma cell lines against the NCATS MIPE library collection: XG1_PLB cell viability assay (AID 1919866); details: CellTiter-Glo ATP, 48 h; viability: at 45.8 µM (top of the series); further: nearly all actives have a fitted effect of over 35% in size
Summary of the method: as §1

[13] = Quantitative High-Throughput drug screen in 47 multiple myeloma cell lines against the NCATS MIPE library collection: KMS11_JCRBsus cell viability assay (AID 1919873); further: nearly all actives have a fitted effect of over 50% in size
Summary of the method: as §1

[14] = Quantitative High-Throughput drug screen in 47 multiple myeloma cell lines against the NCATS MIPE library collection: PE2_PLB cell viability assay (AID 1919869); details: PE2_PLB myeloma cells viability, ATP luminescence, 48 h; viability (% of control): at 45.8 µM (top of the series); further: nearly all actives have a fitted effect of over 35% in size
Summary of the method: as §1

[15] = Quantitative High-Throughput drug screen in 47 multiple myeloma cell lines against the NCATS MIPE library collection: KMS28BM_JCRB cell viability assay (AID 1919874); further: nearly all actives have a fitted effect of over 35% in size
Summary of the method: as §1

[16] = Quantitative High-Throughput drug screen in 47 multiple myeloma cell lines against the NCATS MIPE library collection: OPM1_PLB cell viability assay (AID 1918989); further: nearly all actives have a fitted effect of over 40% in size
Summary of the method: as §1

[17] = Quantitative High-Throughput drug screen in 47 multiple myeloma cell lines against the NCATS MIPE library collection: SKMM1_PLB cell viability assay (AID 1919863); details: SKMM1 myeloma viability, CellTiter-Glo ATP, 48 h; viability: stronger effect = lower value; further: nearly all actives have a fitted effect of over 35% in size
Summary of the method: as §1

[18] = Quantitative High-Throughput drug screen in 47 multiple myeloma cell lines against the NCATS MIPE library collection: RPMI8226_ATCC cell viability assay (AID 1919871); details: RPMI8226 myeloma viability, CellTiter-Glo ATP luminescence, 48 h; viability (% of control): at 45.8 µM (top of the series); further: nearly all actives have a fitted effect of over 30% in size
Summary of the method: as §1

Measured: Potency
Potency means the concentration at half of the fitted maximal effect.

CN1CCN(c2ccc([N+](=O)[O-])c3no[n+]([O-])c23)CC1
active: [1] 18700 nM | [2] 14800 nM | [3] 20900 nM | [4] 14800 nM | [5] 18700 nM | [6] 5900 nM
inconclusive: [7] 23500 nM [cytotoxic, partial curve]

CCOP(=O)(OCC)C(C)NC(=O)N(CCCl)N=O (stereo not given)
inactive: [8] | [9] | [11] | [12] | [5] | [6] | [13]
inconclusive: [1] 296 nM [rising, full curve, poor fit] | [2] 1320 nM [cytotoxic, partial curve, poor fit] | [10] 1480 nM [rising, full curve, poor fit] | [7] 1 nM [cytotoxic]

CCCCCC[C@H]1C(=O)O[C@H](C)[C@H](NC(=O)c2cccc(NC=O)c2O)C(=O)O[C@@H](C)[C@@H]1OC(=O)CC(C)C
active: [1] 59 nM | [10] 66.2 nM | [5] 52.6 nM
inconclusive: [8] 372 nM [cytotoxic, full curve, poor fit] | [2] 10500 nM [cytotoxic, partial curve, poor fit] | [7] 18700 nM [cytotoxic, partial curve, poor fit]

CCN1CCN(C(=O)Cc2ccc(Nc3ncc(F)c(Nc4ccc(C(=O)Nc5ccccc5Cl)cc4)n3)cc2)CC1
active: [1] 8330 nM | [2] 4180 nM | [10] 2640 nM | [16] 5260 nM | [4] 2640 nM | [13] 743 nM

C[C@@H]1[C@@H](CC(C[C@H]2O[C@@H]3O[C@]4(C)CC[C@@H]5[C@H](C)CC[C@@H]([C@H]2C)[C@@]35OO4)C[S+](=O)([O-])c2ccc(COC(=O)N(C)C)cc2)O[C@@H]2O[C@]3(C)CC[C@H]4[C@H](C)CC[C@@H]1[C@@]24OO3 (stereo not given in full)
active: [8] 46.9 nM | [2] 74.3 nM | [9] 83.3 nM | [11] 372 nM
inconclusive: [1] 132 nM [cytotoxic, full curve] | [7] 148 nM [cytotoxic, full curve]

CC(C)N(CCNC(=O)CN1CCCC1=O)C(C)C
inconclusive: [9] 526 nM [cytotoxic, full curve, poor fit] | [10] 1.2 nM [rising, full curve, poor fit] | [17] 526 nM [cytotoxic, full curve, poor fit] | [12] 2.1 nM [cytotoxic, full curve, poor fit] | [6] 10500 nM [cytotoxic, partial curve, poor fit] | [18] 9350 nM [cytotoxic, partial curve, poor fit]
inactive: [1] | [2] | [16] | [11] | [5]

COC[C@@H](NC(C)=O)C(=O)NCc1ccccc1
inactive: [1] | [8] | [2] | [10] | [12] | [6] | [7] | [13]
inconclusive: [9] 8330 nM [cytotoxic, partial curve, poor fit] | [11] 23.5 nM [rising, full curve, poor fit] | [5] 187 nM [rising, full curve, poor fit] | [14] 1.2 nM [rising, full curve, poor fit]

COC[C@H]1OC(=O)c2coc3c2[C@@]1(C)C1=C(C3=O)C2CCC(=O)[C@@]2(C)C[C@H]1OC(C)=O (stereo not given in full)
inconclusive: [1] 833 nM [cytotoxic, partial curve] | [15] 20900 nM [cytotoxic, partial curve]
active: [8] 11800 nM | [2] 7430 nM | [9] 743 nM | [17] 2960 nM | [11] 20900 nM | [12] 1480 nM | [5] 264 nM | [7] 10500 nM
